Measurements reported in PubChem BioAssay AID1224826 (NIAID, 2016)

Screen: 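Regulators of Tlr4 signalling leading to Tnf-alpha expression in macrophages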 (primary screen)
Cell system: RAW264.7 G9 macrophages from mouse bearing reporters for p65 (GFP) and the Tnf promoter (mCherry)
Reagent: siRNA pool against mouse genes, 100 nM
Timing: 16 h of LPS stimulation, after 2 days of siRNA transfection
Treatment: bacterial lipopolysaccharide (Salmonella minnesota R595), 10 ng/ml
Read-out: 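Imaged Tnf reporter mCherry in nuclei, minus background, normalised per plate to the median and expressed as robust z-scores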
Scale: Tnf reporter robust z-score: higher = stronger Tnf promoter reporter signal after LPS
Call rule: 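Called active when robust z-score is at most -1.3, matching the median of the Tlr4 knock-down control, or over 3; control wells and wells with under 50 cells never active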
Calls: active = Tnf reporter clearly lowered or raised; inactive = no clear change in Tnf reporter
Here is one part, drawn at random, of about 17,000 reagents. In the full data, about 1,110 (6.6%) are marked active. 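Active means lowered or raised reporter signal; replicate intensities are raw and not normalised per plate.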 Not all columns of the deposit are shown.

Arpc4 (GeneID 68089) scored Tnf reporter robust z-score -0.43; fewer than 50 cells in well enough cells in well; inactive.
Vmn1r178 (GeneID 232959) showed Tnf reporter robust z-score -0.11; fewer than 50 cells in well enough cells in well; inactive.
Npas3 (GeneID 27386) scored Tnf reporter robust z-score 0.3; fewer than 50 cells in well enough cells in well; inactive.
After knock-down of Cers4 (GeneID 67260), the screen gave Tnf reporter robust z-score -0.26; fewer than 50 cells in well enough cells in well; inactive.
After knock-down of 4930449I24Rik (GeneID 67410), the record shows fewer than 50 cells in well fewer than 50 cells per well; well left out of calls; inactive.
After knock-down of Hnmt (GeneID 140483) the results were Tnf reporter robust z-score 1.11; fewer than 50 cells in well enough cells in well; inactive.
Depletion of Pias2 (GeneID 17344) came out at: Tnf reporter robust z-score 1.01; fewer than 50 cells in well enough cells in well; inactive.
Silencing of Pcnx1 (GeneID 54604) resulted in: Tnf reporter robust z-score 1.05; fewer than 50 cells in well enough cells in well; inactive.

Copied from the list.
Under “fewer than 50 cells in well”, Vmn1r178 (GeneID 232959) has enough cells in well
Hnmt (GeneID 140483), Tnf reporter robust z-score → 1.11

The results go on.
Against Or12d13 (GeneID 258830), the entry reads Tnf reporter robust z-score 0.01; fewer than 50 cells in well enough cells in well; inactive.
After knock-down of Mnt (GeneID 17428), the record shows Tnf reporter robust z-score 0.42; fewer than 50 cells in well enough cells in well; inactive.
Against Hbb-b2 (GeneID 15130), the values are Tnf reporter robust z-score 1.18; fewer than 50 cells in well enough cells in well; inactive.
With knock-down of Tram1l1 (GeneID 229801), the screen gave fewer than 50 cells in well fewer than 50 cells per well; well left out of calls; inactive.
With knock-down of Fancl (GeneID 67030), the record shows Tnf reporter robust z-score -0.42; fewer than 50 cells in well enough cells in well; inactive.
Silencing of Vmn1r181 (GeneID 404289) came out at: Tnf reporter robust z-score -0.18; fewer than 50 cells in well enough cells in well; inactive.
Knock-down of Gid4 (GeneID 66771) came out at: Tnf reporter robust z-score 0.58; fewer than 50 cells in well enough cells in well; inactive.
After knock-down of B130006D01Rik (GeneID 320616), the screen gave Tnf reporter robust z-score -0.05; fewer than 50 cells in well enough cells in well; inactive.
With knock-down of Myf5 (GeneID 17877), the record shows Tnf reporter robust z-score -0.09; fewer than 50 cells in well enough cells in well; inactive.
For Fgfr2 (GeneID 14183), the values are Tnf reporter robust z-score 0; fewer than 50 cells in well enough cells in well; inactive.
Silencing of Tmc2 (GeneID 192140) resulted in: fewer than 50 cells in well fewer than 50 cells per well; well left out of calls; inactive.
Silencing of Socs3 (GeneID 12702) gave: Tnf reporter robust z-score 0.29; fewer than 50 cells in well enough cells in well; inactive.
After knock-down of Dusp26 (GeneID 66959) the results were fewer than 50 cells in well fewer than 50 cells per well; well left out of calls; inactive.
